Measurements as given in patent US11555055B2 (The Regents of the University of California, priority 2017, dated 2023).

Experiment: peptide synthesis
Details: whole synthesis, HPLC

ACSWWSIHLCG
purity (crude or final not stated): ˜95%

Plain letter strings leave the end groups untold.
